Here are results for one molecule from publication doi:10.1101/2024.06.05.597545.

For this test, the target named is T1, DENR-3×FLAG-NeonGreen-dTAG (mouse (endogenous in NIH/3T3)) (UniProt Q9CQJ6).
T1 sequence: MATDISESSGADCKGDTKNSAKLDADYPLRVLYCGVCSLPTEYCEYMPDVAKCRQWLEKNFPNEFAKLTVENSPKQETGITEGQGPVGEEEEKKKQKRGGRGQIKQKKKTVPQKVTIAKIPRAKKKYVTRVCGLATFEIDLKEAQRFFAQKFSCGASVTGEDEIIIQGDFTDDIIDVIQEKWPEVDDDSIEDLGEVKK
The test is described as follows: affinity purification with mass spectrometry.

These are yes or no findings as the source states them, for the method shown. In cells and extracts the contact can be indirect. These calls come from enrichment with a bait or labelling near it, and not all partners need be listed. Tags and fused reporters may be left off the sequences shown.

B1: MCTS2 (protein, UniProt Q9CQ21 1-181)
chain: MFKKFDEKESVSNCIQLKTSVIKGIKSQLTEQFPGIEPWLNQIMPKKDPVKIVRCHEHMEILTVNGELLFFRQRKGPFYPTLRLLHKYPFILPHQQVDKGAIKFVLSGANIMCPGLTSPGAKLYTAAVDTIVAVMAEGKEHALCVGVMKMAAADIEKINKGIGIENIHYLNDGLWHMKTYK
As to B1, the binding entry is given as “binds”.
